## Results of single-concentration screens

Chains of the proteins cited; added tags and fusions are not shown. Residues count along the entry.
UniProt A4I591, 1-473: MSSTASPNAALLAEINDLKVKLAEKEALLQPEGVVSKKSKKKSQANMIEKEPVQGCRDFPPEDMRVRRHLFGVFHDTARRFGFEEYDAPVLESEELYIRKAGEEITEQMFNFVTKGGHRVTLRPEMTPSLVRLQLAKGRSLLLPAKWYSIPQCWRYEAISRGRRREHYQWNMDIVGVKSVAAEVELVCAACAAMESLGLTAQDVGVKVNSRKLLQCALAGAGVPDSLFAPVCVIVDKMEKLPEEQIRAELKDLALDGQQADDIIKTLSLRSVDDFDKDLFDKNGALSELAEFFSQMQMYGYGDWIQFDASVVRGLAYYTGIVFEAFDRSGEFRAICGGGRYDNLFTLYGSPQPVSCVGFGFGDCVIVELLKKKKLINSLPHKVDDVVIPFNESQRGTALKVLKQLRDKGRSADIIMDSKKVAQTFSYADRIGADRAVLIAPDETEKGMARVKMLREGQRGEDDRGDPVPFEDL
UniProt P9WPC5, whole entry: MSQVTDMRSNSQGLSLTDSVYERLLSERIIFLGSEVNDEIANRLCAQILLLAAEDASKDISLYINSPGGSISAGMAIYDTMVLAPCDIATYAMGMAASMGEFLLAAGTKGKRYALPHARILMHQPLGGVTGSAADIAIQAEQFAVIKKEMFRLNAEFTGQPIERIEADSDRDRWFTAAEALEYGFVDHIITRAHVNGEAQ
UniProt P9WPC3, whole entry partner: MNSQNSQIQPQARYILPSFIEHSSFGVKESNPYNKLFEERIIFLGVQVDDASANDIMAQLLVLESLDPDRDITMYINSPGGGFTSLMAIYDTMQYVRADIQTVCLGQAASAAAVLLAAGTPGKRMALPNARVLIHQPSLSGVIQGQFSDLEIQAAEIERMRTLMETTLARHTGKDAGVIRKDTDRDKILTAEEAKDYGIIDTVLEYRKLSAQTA
UniProt Q4DA54, 1-478: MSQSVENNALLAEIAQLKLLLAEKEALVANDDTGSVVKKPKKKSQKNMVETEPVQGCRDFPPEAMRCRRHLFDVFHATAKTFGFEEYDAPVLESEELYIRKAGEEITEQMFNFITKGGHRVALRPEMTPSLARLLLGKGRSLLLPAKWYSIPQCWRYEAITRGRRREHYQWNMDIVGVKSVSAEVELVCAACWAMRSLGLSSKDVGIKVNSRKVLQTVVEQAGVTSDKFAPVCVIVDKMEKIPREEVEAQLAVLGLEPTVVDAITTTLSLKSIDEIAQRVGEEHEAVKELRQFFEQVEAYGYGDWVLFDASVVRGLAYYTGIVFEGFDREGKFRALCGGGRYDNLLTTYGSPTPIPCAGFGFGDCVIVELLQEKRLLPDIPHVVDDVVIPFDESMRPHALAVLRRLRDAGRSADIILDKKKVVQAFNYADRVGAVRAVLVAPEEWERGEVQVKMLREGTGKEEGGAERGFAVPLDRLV

A: 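Assay of Toxoplasma gondii numbers, read through their beta-galactosidase reporter with a colour substrate. Tested at 10 µM. Higher reads as fewer parasites (inferred from which compounds were picked for retests). About 67,000 compounds were tested under these conditions; 0.38% (about 260) showed 50% or more at least once.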
B: 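Whole-parasite assay of Trypanosoma brucei over 72 hours; the read-out is not stated. Tested at 30 µM. The record gives no direction; compounds that gave an IC50 in retests scored well above the rest, so higher reads as stronger inhibition. Values scatter widely below zero; nearly all retest evidence comes from the higher of the two concentrations used. Size under these conditions: about 64,000 compounds, about 940 of them at 50% or above in at least one test.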
C: 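Histidine-tRNA ligase, Leishmania infantum (UniProt A4I591). Enzyme assay of histidyl-tRNA synthetase; the read-out is not stated. Tested at 30 µM. Direction is inferred from retests: higher values go with stronger inhibition. The assay is labelled LdHisRS but filed under L. infantum. Of about 69,000 compounds tested this way, about 410 (0.6%) reached 50% or more in at least one test.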
D: 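ClpP1P2, Mycobacterium tuberculosis (UniProt P9WPC5 and UniProt P9WPC3). Protease assay of ClpP1P2, read by the AMC dye that it sets free. Concentration: 50 µM. Higher reads as stronger inhibition, judged from the few compounds that gave an IC50. Most other retested compounds had strongly negative values. Of about 69,000 compounds tested this way, about 10 (0.015%) reached 50% or more in at least one test.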
E: 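Histidine-tRNA ligase, Trypanosoma cruzi CL Brener (UniProt Q4DA54). Enzyme assay of histidyl-tRNA synthetase; the read-out is not stated. Concentration: 30 µM. The record gives no direction; compounds that gave an IC50 in retests scored well above the rest, so higher reads as stronger inhibition. Of about 69,000 compounds tested this way, about 31 (0.045%) reached 50% or more in at least one test.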

Values are the deposited “Percent Effect”, in %. The record does not define 0% and 100%; most values in the screen are far below 50% and negative numbers occur (in some assays of this library far below -100). This is an unselected part of the compounds tested. A dash means the value is not listed here; it may have been measured.

| # | Compound | A | B | C | D | E |
|---|---|---|---|---|---|---|
| 1 | `[H][C@@]12CN(C(=O)[C@H]3CCCO3)C[C@]1([H])C(=O)N(CC1CC1)C2` | -5.88 | -9.393 | - | - | - |
| 2 | `CCC1CN(CC(=O)NCCOC)CCO1` (stereo not given) | 1.99 | -10.63 | 9.524 | -6.532 | 1.538 |
| 3 | `Cc1cc(C)nc(NCCC(=O)NCCn2ccnc2C)n1` | - | - | 7.143 | 0.7025 | 1.916 |
| 4 | `Cc1cnnn1Cc1ncn2c1CN(Cc1cccs1)CCC2.O=C(O)C(F)(F)F` | -0.05379 | - | - | - | - |
| 5 | `O=C(O)C(F)(F)F.O=C(c1cc[nH]n1)N1CCC2(CC1)CC(Oc1cccnc1)CO2` (stereo not given) | 0.0575 | -3.949 | - | - | - |
| 6 | `COCCN(C)c1ccc(NCc2cccnc2)nc1` | -1.271 | -52.84 | 22.86 | 1.026 | 22.08 |
| 7 | `CN1C(=O)[C@H](OC(N)=O)[C@@H](C(=O)Nc2ccccc2)C12CCNCC2` | -30.04 | -13.1 | 22.45 | -0.8835 | 6.742 |
| 8 | `Cc1nnc2n1CCN(Cc1nc3ccccc3o1)C2` | -2.99 | 0.4929 | 22.39 | -0.6097 | 1.064 |
| 9 | `N#Cc1cc(F)ccc1NCC1CCN(S(=O)(=O)C(F)F)CC1` | -5.025 | -15.46 | 18.28 | -24.76 | 5.357 |
| 10 | `COCC1CN(Cc2ccncc2)Cc2nn(C)cc21` (stereo not given) | -4.059 | -33.54 | -11.93 | 22.76 | -7.563 |
| 11 | `CC(NC(=O)c1cccs1)C(=O)Nc1cccnc1N1CCCCC1` (stereo not given) | -10.19 | 47.16 | 8.929 | -29.89 | 7.493 |
| 12 | `O=C(Cn1cc(-n2cccc2)cn1)NCC1CCC1` | 5.519 | 0.788 | 18.42 | -16.77 | -1.22 |
| 13 | `COCc1cc(CNC(=O)c2cccc3c2OCC3)n[nH]1` | -21.31 | -18.37 | 9.917 | -7.891 | 6.122 |
| 14 | `CCS(=O)(=O)NCC(Cc1cccc(F)c1)N1CCNC1=O` (stereo not given) | -10.69 | -6.529 | 25.64 | -9.666 | 4.819 |
| 15 | `CC(NC(=O)C1CCN(C(C)C)CC1)c1nncn1C1CCCC1` (stereo not given) | 7.666 | -3.341 | 8.602 | 1.934 | 2.618 |
| 16 | `COCCC(=O)N1CCCN(Cc2nccn2C(C)C)CC1` | -0.8283 | -9.738 | 14.78 | 15.04 | 5.07 |
| 17 | `c1cnc(-c2noc(C3CN(Cc4ccc5c(c4)CCO5)C3)n2)cn1` | - | - | 15.65 | 5.196 | 3.093 |
| 18 | `CCCn1cc(S(=O)(=O)N[C@H]2CN(CC(N)=O)C[C@@H]2C2CC2)cn1` | -14.11 | -3.157 | 24.29 | 5.468 | -1.064 |
| 19 | `CCOCC(=O)N1CC[C@H]2O[C@@H](C)C[C@H]2C1` | - | - | 10 | -13.34 | -0.9804 |
| 20 | `CO[C@H]1CN(C(=O)c2ccccn2)[C@@H]2CCCO[C@H]12` | - | - | 4.511 | -4.494 | 0.5525 |
| 21 | `COc1ccc(CNCCc2cc(F)cc3c2OCOC3)cc1OC` | -11.08 | -12.21 | 3.704 | -25.25 | 4.018 |
| 22 | `COc1ccc(CN(C)C2CCN(S(C)(=O)=O)CC2)c2cccnc12` | -7.42 | -15.7 | 2.5 | 5.994 | 6.579 |
| 23 | `CN(C)c1ccc(CCCNC(=O)NCC(O)c2cccs2)cc1` (stereo not given) | -14.22 | -6.238 | 11.43 | -1.617 | 5.155 |
| 24 | `COCCNC(=O)[C@@H]1CN(Cc2sccc2C)C[C@H]2OCC[C@H]21` | - | - | 24.19 | -20.09 | -4.386 |
| 25 | `CN(CC1(O)CCCC1)C(=O)c1cccc(Nc2cnccn2)c1` | 27.04 | 2.093 | 8.696 | -18.35 | 4 |
| 26 | `COCCc1noc(CN2CCC3(CCCO3)CCC2=O)n1` (stereo not given) | 8.66 | -51.32 | 1.042 | -3.013 | 6.704 |
| 27 | `Cc1noc(C)c1-c1cncc(C2CCCN2Cc2cn(C)cn2)n1` (stereo not given) | -21.39 | 12.84 | 16 | -6.385 | 6.742 |
| 28 | `NC(=O)NC(=O)Cn1ccc2sccc2c1=O` | -0.5895 | -30.79 | 2.679 | -4.288 | -17.24 |
| 29 | `CSCCCN1CCC[C@]2(C(=O)O)CN(c3cnccn3)CC[C@@H]12` | - | - | 14.58 | 12.84 | -6.704 |
| 30 | `O=C(c1ccoc1)N1CCn2nc(CN3CCSCC3)cc2C1` | 2.612 | -22.91 | 2.632 | 15.7 | -2.793 |
| 31 | `Cc1cnn(C2CCCN(C(=O)CCc3cnn(C)c3)C2)c1` (stereo not given) | -29.88 | -0.2091 | 12.5 | -14.92 | 6.977 |
| 32 | `CCOc1ccc(OCC)c(NCc2cc(C)on2)c1` | -1.068 | -35.63 | 8.511 | -5.165 | -5.202 |
| 33 | `Cc1cnc(CNC(=O)N(Cc2ccccc2)CC(C)(C)O)s1` | 1.536 | -20.02 | 6.494 | -8.561 | 6.404 |
| 34 | `CCOc1ccnc(N2CCCN(C(=O)c3cc[nH]c3C)CC2)n1` | 11.32 | - | -22.03 | -9.328 | -3.429 |
| 35 | `Cl.Cl.[H][C@@]12CCNCC1OCCN2Cc1ccccc1` (stereo not given in full) | -0.1325 | - | - | - | - |
| 36 | `Cc1csc(CCNCc2cnc3c(c2)c(C)nn3C)n1` | - | - | 14.61 | -0.5089 | 1.554 |
| 37 | `O=C(O)c1ccc(CN2CCC(c3ccnc4ccnn34)CC2)cc1` | 6.42 | -12.77 | 6.207 | -0.486 | 0.7605 |
| 38 | `Cc1cnn(CCCNC(=O)C2CCCCN2Cc2ccncc2)c1` (stereo not given) | 5.887 | -54.67 | 5.714 | -5.523 | 1.299 |

For reference, 5 entries once more:

Compound,A,B,C,D,E
CN1C(=O)[C@H](OC(N)=O)[C@@H](C(=O)Nc2ccccc2)C12CCNCC2,-30.04,-13.1,22.45,-0.8835,6.742
CC(NC(=O)c1cccs1)C(=O)Nc1cccnc1N1CCCCC1 (stereo not given),-10.19,47.16,8.929,-29.89,7.493
O=C(c1ccoc1)N1CCn2nc(CN3CCSCC3)cc2C1,2.612,-22.91,2.632,15.7,-2.793
Cc1cc(C)nc(NCCC(=O)NCCn2ccnc2C)n1,-,-,7.143,0.7025,1.916
COc1ccc(CNCCc2cc(F)cc3c2OCOC3)cc1OC,-11.08,-12.21,3.704,-25.25,4.018

Data taken from ChEMBL document CHEMBL3988442, “University of Dundee, Small-Polar-MMV Screening Library” (2021).